This passage reports cell number change and AC50 results from PubChem BioAssay AID2685 (National Center for Advancing Translational Sciences (NCATS), 2010).

This assay is described as follows: qHTS Assay for Lipid Storage Modulators in Drosophila S3 Cells.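 For cell number change: cells counted by Cell Tracker Red CMTPX staining in the red channel.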 The settings on record: BODIPY lipid droplet fluorescence, 18-24 h; for cell number change: measured here: cell count max response, cells fed with added oleic acid. In a few lines: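 Drosophila S3 cells got compounds at several concentrations plus oleic acid (400 uM solution). Laser-scanning cytometry with 488 nm excitation read lipid droplets at 500-530 nm and cells at 575-640 nm. Percent activity was relative to 20 uM Triacsin C.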

Where [1] appears, read: measured here: lipid fluorescence (Fed channel) AC50, cells fed with added oleic acid.
The mark [2] stands for this setting: measured here: cell number channel AC50, cells fed with added oleic acid.

The other results are listed elsewhere or left out. These are further read-outs of the screen, such as a control signal, another cell line or another target. No call is given for them. Compounds called inactive in the main read-out are mostly missing here. The note in brackets gives the kind of curve behind each potency; many fits are weak.

In the case of `O=C(c1ccc2c(c1)N(Cc1ccc(F)cc1)C(=O)c1ccccc1S2(=O)=O)N1CCN(c2ccccn2)CC1`, the cell number change came out at 18.8%. For the same compound, the half-maximal activity concentration (AC50) under setting [1] is 1.46 µM [falling, partial curve]. With `CCCC1=C(C(=O)OCC)C(c2cccs2)C(C#N)=C(N)O1` (stereo not drawn), the cell number change is -29.4%. Besides, under setting [1], the half-maximal activity concentration (AC50) was 23.1 µM [falling, single point].

For the compound `Cc1c(O)ccc(/C=N/Nc2nc(-c3cccnc3)nc3ccccc23)c1O`, the cell number change is -52.2%. Besides, under setting [2], the AC50 is 16.4 µM [falling, single point]. Also, under setting [1], the half-maximal activity concentration (AC50) was 16.4 µM [falling, partial curve]. Consider `CCc1cccc(NS(=O)(=O)c2ccc3c(c2)N(C)CCO3)c1`, for which the cell number change is -36.6%. For the same compound, the half-maximal activity concentration (AC50) under setting [2] was 4.11 µM [falling, partial curve]. `Cc1cccc(C)c1N(C(=O)c1ccco1)C(C(=O)NC1CCCC1)c1ccncc1` (stereo not drawn): the cell number change is -3.17%. Further, the AC50 under setting [1] was 29.1 µM [rising, single point]. On to `COc1ccc(N(CC(=O)N2CCc3ccccc3C2)S(C)(=O)=O)cc1Cl`, for which the cell number change was 0.794%. For the same compound, under setting [1], the concentration at half-maximal activity (AC50) was 0.206 µM [rising, full curve].

As to `Cc1ccc(N2CC(=O)N(NC(=O)c3sc4nc(C)cc(C)c4c3N)CC2=O)cc1`, the AC50 under setting [1] is 3.66 µM [rising, single point]. With `Cc1cc(C(=O)NNC(=O)C2CCCC2)c(C)o1`, the cell number change is -2.69%. Further, under setting [2], the concentration at half-maximal activity (AC50) is 6.51 µM [rising, single point]. Also, the AC50 under setting [1] is 6.51 µM [rising, single point]. As to `O=C(NNc1cc(N2CCOCC2)nc(N2CCOCC2)n1)c1ccc(Cl)c(Cl)c1`, the cell number change is 64%. The AC50 under setting [2] is 29.1 µM [rising, single point]. Also, the concentration at half-maximal activity (AC50) under setting [1] is 0.291 µM [rising, full curve, poor fit].

With `O=C1c2cccnc2C(=O)N1Cc1ccc(S(=O)(=O)N2CCOc3ccc(Cl)cc32)cc1`, the cell number change came to 18.9%. Moreover, under setting [1], the AC50 was 29.1 µM [rising, partial curve]. Regarding `CN(C)C(=O)c1ccccc1Sc1ccc(Cl)cc1Cl`, the half-maximal activity concentration (AC50) is, setting by setting: under setting [2], 0.058 µM [falling, full curve, poor fit]; under setting [1], 0.411 µM [rising, full curve, poor fit]. As for `O=C(Nc1ccccc1)Nc1nnc(CSCc2ccccc2Cl)s1`, the cell number change is -33.5%. The AC50 under setting [2] was 14.6 µM [falling, single point]. Besides, the half-maximal activity concentration (AC50) under setting [1] is 13 µM [falling, single point]. Take `Cc1ccc(NS(=O)(=O)c2ccc(C(=O)NCC3CCCO3)cc2)cc1` (stereo not drawn): the cell number change turned out to be 53.8%. Also, under setting [2], the concentration at half-maximal activity (AC50) was 2.91 µM [rising, partial curve]. Further, the half-maximal activity concentration (AC50) under setting [1] is 1.64 µM [rising, partial curve]. For the compound `O=C(NC1CCCC1)C(c1cccnc1)N(C(=O)c1ccco1)c1ccc(F)cc1` (stereo not drawn), the cell number change was 6.94%. As to `C/C(=N\NC(=O)C1CC1c1ccccc1)c1cccc([N+](=O)[O-])c1` (stereo not drawn), the cell number change was -95.7%. Further, the AC50 under setting [2] was 32.6 µM [falling, partial curve, poor fit].

Regarding `Cc1ccc(-c2nnc(N(C)C(=O)c3cccnc3)s2)cn1`, the cell number change was 105%. Also, the AC50 under setting [2] was 6.51 µM [rising, partial curve]. Under setting [1], the half-maximal activity concentration (AC50) is 1.84 µM [rising, partial curve].

Take `Cc1cc(=O)oc2cc(OCC(=O)Nc3ccccc3C(N)=O)c(Cl)cc12`: the cell number change was -0.382%. Further, the AC50 under setting [2] was 3.26 µM [falling, partial curve, poor fit]. Besides, under setting [1], the AC50 was 10.3 µM [falling, partial curve]. On to `CCc1cccc2c(=O)c(C(=O)N3CCOCC3)c[nH]c12`, for which the cell number change was -31.2%. Further, the AC50 under setting [2] is 0.461 µM [falling, full curve]. Also, the concentration at half-maximal activity (AC50) under setting [1] is 0.231 µM [falling, partial curve]. Turning to `O=C(CSc1n[nH]c(-c2ccc(S(=O)(=O)N3CCCCC3)cc2)n1)Nc1nccs1`, the cell number change was -26.9%. Also, under setting [1], the concentration at half-maximal activity (AC50) is 23.1 µM [falling, single point].

With `COc1ccc(-c2nc(N)ncc2-c2ccc(Cl)cc2)c(O)c1`, the cell number change was determined as 12.8%. Also, the AC50 under setting [1] was 16.4 µM [rising, single point].

Consider `Cc1ccsc1-c1cc(C(=O)O)c2c(ccc3ccccc32)n1`, for which the cell number change was found to be 12.6%. Also, under setting [1], the half-maximal activity concentration (AC50) is 29.1 µM [rising, single point].

Take `COc1ccc2c(c1)-c1nc(NC(=O)c3cccs3)sc1CC2`: the cell number change stood at 6.98%. In addition, the half-maximal activity concentration (AC50) under setting [1] was 18.4 µM [falling, partial curve]. With `COCC(=O)Nc1c(C(=O)Nc2cccc(OC)c2)oc2ccccc12`, the concentration at half-maximal activity (AC50) under setting [1] was 1.3 µM [rising, full curve]. For `CC1CCCCN1C(=O)c1ccc(CS(=O)(=O)Cc2ccccc2)cc1` (stereo not drawn), under setting [1], the half-maximal activity concentration (AC50) is 1 µM [rising, partial curve]. Take `c1ccc(-c2nc(Sc3ncnc4c3cnn4-c3ccccc3)n[nH]2)cc1`: the cell number change is -1.36%.

Take `Cc1ccc2c(c1)CCCN2C(=O)c1c(C)noc1C`: the cell number change is -37.9%. Under setting [2], the AC50 is 14.6 µM [falling, single point].

For the compound `CN1CCN(C(=S)c2cn(Cc3cccc(F)c3)c3ccccc23)CC1`, under setting [2], the concentration at half-maximal activity (AC50) was 6.51 µM [rising, single point]. Regarding `Cc1ccc(-c2noc(CCC(=O)NCC3CCCO3)n2)cc1` (stereo not drawn), the AC50 under setting [1] was 3.66 µM [falling, partial curve]. Take `CCCn1c(C(C)Nc2nc(-c3ccc(C)cc3)cs2)nc2ccccc21` (stereo not drawn): the cell number change came out at 7.44%.

Turning to `CC(C)(C)c1ccc(C(=O)N2CCC(NC(=O)c3ccccc3)CC2)cc1`, the cell number change was -14.8%. Also, the half-maximal activity concentration (AC50) under setting [1] was 11.6 µM [falling, partial curve, poor fit]. `O=C1c2ccccc2C(=O)N1CCCCCc1nc(-c2ccccc2)no1`: the half-maximal activity concentration (AC50) under setting [1] is 0.58 µM [rising, single point]. Regarding `Cn1c(SCCN2CCOCC2)nc2sc3c(c2c1=O)CCCC3`, the cell number change was -24.4%. Moreover, under setting [2], the AC50 was 0.0146 µM [falling, full curve, poor fit].

As to `CCCc1ccc2oc(C(=O)NCc3nnc(C)o3)c(C)c2c1`, the cell number change is -5.38%.

Take `N#Cc1ccc(C(=O)Nc2ccc3ccccc3c2)cc1`: the cell number change stood at 8.11%. Also, under setting [1], the AC50 was 11.6 µM [rising, single point].

As for `C[C@@]12CCC3[C@@](CCC4[C@@]3(C)CCC[C@@]4(C)C(=O)NCc3ccccc3)(CC1=O)C2` (stereo partly drawn), the cell number change was -30.1%. The AC50 under setting [2] was 5.8 µM [falling, single point]. Besides, under setting [1], the concentration at half-maximal activity (AC50) is 23.1 µM [falling, single point]. For the compound `COc1ccccc1CN(C)C(=O)CNC(=O)c1cccc(Cl)c1`, the cell number change was determined as 31.5%. The AC50 under setting [2] was 29.1 µM [rising, single point].

As to `CCc1ccc(N2CC(C)Cn3c2nc2c3c(=O)n(CCN3CCOCC3)c(=O)n2C)cc1` (stereo not drawn), the cell number change was -5.57%. Besides, the AC50 under setting [1] is 4.11 µM [rising, partial curve, poor fit].
